Source: PubChem BioAssay AID1671195 (Yale University, 2021)

- Purpose: 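Genes whose knockdown alters LDL uptake in liver cancer cells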 (primary screen)
- Cells: human Huh7 hepatoma cells
- Knock-down reagent: siRNA pool against human genes, 18 nM
- Time to read-out: about 2 to 2.5 days of knockdown, then 8 h LDL uptake
- Treatment: DiI-labelled LDL at 30 µg/ml for 8 h, in lipoprotein-deficient serum medium
- Measurement: 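Per-cell DiI-LDL intensity by automated imaging; well means scaled to the plate median and given as a robust z-score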
- Scale: robust z-score: higher = more LDL uptake after knockdown
- Rule for the call: 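Active when two or more replicates show a robust z-score above 2 or below -2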
In all, the deposit lists about 22,000 reagents; shown is an unselected part. About 1,510 of all reagents (6.9%) were called active. 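Active includes knockdowns raising or lowering LDL uptake; positive z-scores mean more uptake, negative mean less.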 No sequences are given here.

What did the screen give for SUPT3H?
robust z-score, replicate 1: 0.789; robust z-score, replicate 2: 3.35; robust z-score, replicate 3: 1.86; Call: inactive

What is on record for CAVIN4?
robust z-score, replicate 1: 0.125; robust z-score, replicate 2: 0.181; robust z-score, replicate 3: -0.592; Call: inactive

What did the screen give for TM9SF1?
robust z-score, replicate 1: -0.223; robust z-score, replicate 2: -0.576; robust z-score, replicate 3: -0.182; Call: inactive

What is on record for KLHL36?
robust z-score, replicate 1: -0.616; robust z-score, replicate 2: -0.473; robust z-score, replicate 3: -0.539; Call: inactive

For PRSS55, how do the results read?
robust z-score, replicate 1: -1.72; robust z-score, replicate 2: -1.5; robust z-score, replicate 3: -1.21; Call: inactive

For GDAP1, how do the results read?
robust z-score, replicate 1: 0.28; robust z-score, replicate 2: -0.673; robust z-score, replicate 3: 0.508; Call: inactive

How did the screen score NDST2?
robust z-score, replicate 1: -0.161; robust z-score, replicate 2: -0.578; robust z-score, replicate 3: 0.0375; Call: inactive

What is on record for FASTKD2?
robust z-score, replicate 1: 0.874; robust z-score, replicate 2: -0.486; robust z-score, replicate 3: 1.93; Call: inactive

With GPHRB, what was measured?
robust z-score, replicate 1: 0.314; robust z-score, replicate 2: -0.62; robust z-score, replicate 3: 0.0806; Call: inactive

How did the screen score RNASE6?
robust z-score, replicate 1: 2.09; robust z-score, replicate 2: 1.68; robust z-score, replicate 3: 1.81; Call: inactive

For TTLL2, what was measured?
robust z-score, replicate 1: -0.522; robust z-score, replicate 2: -0.79; robust z-score, replicate 3: -0.451; Call: inactive

What did the screen give for DVL2?
robust z-score, replicate 1: 2.46; robust z-score, replicate 2: 0.214; robust z-score, replicate 3: 2.08; Call: inactive

How did the screen score DRC1?
robust z-score, replicate 1: -0.884; robust z-score, replicate 2: -0.349; robust z-score, replicate 3: -0.261; Call: inactive

With DNAJB3P, what was measured?
robust z-score, replicate 1: -0.549; robust z-score, replicate 2: -0.406; robust z-score, replicate 3: -0.533; Call: inactive

Which result is listed for SLA?
robust z-score, replicate 1: 0.53; robust z-score, replicate 2: 0.0203; robust z-score, replicate 3: -0.364; Call: inactive

With UBN1, what does the deposit list?
robust z-score, replicate 1: 1.46; robust z-score, replicate 2: 0.18; robust z-score, replicate 3: 1.55; Call: inactive

With GSTM2P1, what was measured?
robust z-score, replicate 1: 0.229; robust z-score, replicate 2: -0.955; robust z-score, replicate 3: -0.00854; Call: inactive

For NHLH2, how do the results read?
robust z-score, replicate 1: 0.647; robust z-score, replicate 2: -0.0524; robust z-score, replicate 3: 0.201; Call: inactive

With TMEM145, what does the deposit list?
robust z-score, replicate 1: -1.49; robust z-score, replicate 2: -1.46; robust z-score, replicate 3: -1.12; Call: inactive

With FAM86GP, how do the results read?
robust z-score, replicate 1: 1.21; robust z-score, replicate 2: 1.14; robust z-score, replicate 3: 1.3; Call: inactive

What is on record for SPAST?
robust z-score, replicate 1: -0.928; robust z-score, replicate 2: 0.695; robust z-score, replicate 3: 0.0557; Call: inactive

With BPGM, how do the results read?
robust z-score, replicate 1: 1.14; robust z-score, replicate 2: 1.43; robust z-score, replicate 3: 1.15; Call: inactive

Which result is listed for PSRC1?
robust z-score, replicate 1: 0.728; robust z-score, replicate 2: 0.859; robust z-score, replicate 3: 0.729; Call: inactive

For LINC01278, how do the results read?
robust z-score, replicate 1: 1.45; robust z-score, replicate 2: 0.33; robust z-score, replicate 3: 0.547; Call: inactive
